# Source: PubChem BioAssay AID743454 (Peter MacCallum Cancer Centre, 2014)
# Purpose: 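Genes whose loss kills vorinostat-resistant colon cancer cells under vorinostat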 (primary screen)
# Cell system: human HCT116-VR colon cancer cells, selected for vorinostat resistance
# Reagent: siRNA pool against human genes, 40 nM siRNA pool
# Time to read-out: vorinostat for 24 h, read-out about 72 h after transfection
# Challenge: vorinostat at 2.5 µM final
# Detection: 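Cell viability by CellTiter-Fluor and caspase 3/7 activity by luminescence, each scaled to mock wells per plate, duplicates averaged, then robust z-scored over all plates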
# Reading the numbers: viability robust z-score: higher = more viable cells than screen typical; caspase robust z-score: higher = more caspase 3/7 activity than screen typical
# Rule for the call: 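a knock-down is a hit when classed RV1 or RV2 for lowered viability, or CA1 or CA2 for caspase activation; those lethal without drug were dropped; hits were retested singly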
# The whole screen tested about 18,000 reagents; this is a part drawn at random. Over the whole deposit, 450 (2.5%) were called active. 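Single biological run; no consistent viability z cut-off exists, so the class columns, not z-scores, define the calls.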
target,PubChem SID,viability hit class,caspase hit class,viability robust z-score,caspase robust z-score,outcome
POLR2C (RNA polymerase II subunit C),SID152154836,no change,no change,-3.12,6.42,inactive
GATC (glutamyl-tRNA amidotransferase subunit C),SID135625153,no change,no change,0.18,-0.98,inactive
STK38L (serine/threonine kinase 38 like),SID152156064,no change,no change,-1.11,0.6,inactive
"PSMD7 (proteasome 26S subunit, non-ATPase 7)",SID134314350,no change,no change,-3.31,3.82,inactive
TTC4 (tetratricopeptide repeat domain 4),SID135623846,no change,no change,1.52,-0.38,inactive
EIF2B2 (eukaryotic translation initiation factor 2B subunit beta),SID152153708,RV2 (reduced viability),no change,-3.25,3.09,active
RABAC1 (Rab acceptor 1),SID134323873,no change,no change,0.18,-0.5,inactive
CLDN6 (claudin 6),SID135623042,no change,no change,-2.66,3.12,inactive
SKAP2 (src kinase associated phosphoprotein 2),SID152155876,no change,no change,-0.22,0.02,inactive
OLIG1 (oligodendrocyte transcription factor 1),SID134329296,no change,no change,-1.11,1.82,inactive
OR5P2 (olfactory receptor family 5 subfamily P member 2),SID134313909,no change,no change,-0.18,-1.01,inactive
SLC52A3,SID135622888,no change,no change,0.62,-0.28,inactive
SNRPA (small nuclear ribonucleoprotein polypeptide A),SID134323223,no change,no change,-1.46,1.61,inactive
CDC42BPA (CDC42 binding protein kinase alpha),SID152147424,no change,no change,1.45,2.63,inactive
TTC17 (tetratricopeptide repeat domain 17),SID152154378,no change,no change,-2.41,1.49,inactive
PFDN4 (prefoldin subunit 4),SID152156561,no change,no change,1.71,-0.2,inactive
"MUC17 (mucin 17, cell surface associated)",SID152156207,no change,no change,0.16,-0.62,inactive
CSTF2 (cleavage stimulation factor subunit 2),SID135622090,no change,no change,0.45,-1.19,inactive
NCOA3 (nuclear receptor coactivator 3),SID134310067,no change,no change,0.49,-0.68,inactive
NDUFAF1 (NADH:ubiquinone oxidoreductase complex assembly factor 1),SID135624098,no change,no change,-1.19,-0.34,inactive
RHOBTB3 (Rho related BTB domain containing 3),SID152147138,no change,no change,0.42,-0.06,inactive
IMPG2 (interphotoreceptor matrix proteoglycan 2),SID152155700,no change,no change,0.03,-0.44,inactive
CD52 (CD52 molecule),SID135623761,no change,no change,-1.02,-0.77,inactive
TUBB6 (tubulin beta 6 class V),SID135621687,no change,no change,-0.02,1.44,inactive
AKR1B1 (aldo-keto reductase family 1 member B),SID135620776,no change,no change,-0.84,-1.01,inactive
ITGA1 (integrin subunit alpha 1),SID134313383,no change,no change,-0.99,-0.12,inactive
PDE3A (phosphodiesterase 3A),SID135621424,no change,no change,-0.4,-0.58,inactive
LGI1 (leucine rich glioma inactivated 1),SID134316289,no change,no change,-1.42,2.27,inactive
CCDC63 (coiled-coil domain containing 63),SID134320832,no change,no change,0.76,0.36,inactive
RABGGTA (Rab geranylgeranyltransferase subunit alpha),SID152152606,no change,no change,-1.2,2.58,inactive
SGK3 (serum/glucocorticoid regulated kinase family member 3),SID56478777,no change,no change,1.17,-0.18,inactive
L3HYPDH (trans-L-3-hydroxyproline dehydratase),SID134314944,no change,no change,0.61,-0.46,inactive
PSG5 (pregnancy specific beta-1-glycoprotein 5),SID134320002,no change,no change,-1.17,-0.88,inactive
MAB21L1 (mab-21 like 1),SID134316419,no change,no change,-0.24,1.66,inactive
MRGBP (MRG domain binding protein),SID134311767,no change,no change,-0.49,1.67,inactive
PARD3B (par-3 family cell polarity regulator beta),SID152156246,no change,no change,0.96,-0.38,inactive
KRT4 (keratin 4),SID152147553,no change,no change,-1.17,0.6,inactive
ADGRG5 (adhesion G protein-coupled receptor G5),SID134310978,no change,no change,-0.38,-0.38,inactive
UBTFL7 (UBTF like 7 (pseudogene)),SID135624611,no change,no change,0.06,-0.15,inactive
F2RL2 (coagulation factor II thrombin receptor like 2),SID134310936,no change,no change,0.07,-0.01,inactive
DNAAF3 (dynein axonemal assembly factor 3),SID135623391,no change,no change,-1.23,-0.34,inactive
FMC1 (formation of mitochondrial complex V assembly factor 1),SID152156453,no change,CA2 (caspase activation),-2.5,5.46,active
PDIA5 (protein disulfide isomerase family A member 5),SID152149181,no change,no change,-1.18,-0.04,inactive
GPC1 (glypican 1),SID135620809,no change,no change,-0.64,0.57,inactive
ARNT (aryl hydrocarbon receptor nuclear translocator),SID134312324,no change,no change,-1.17,3.66,inactive
HPCA (hippocalcin),SID152151480,no change,no change,-0.22,-0.4,inactive
FGB (fibrinogen beta chain),SID152147032,no change,no change,0.05,-1.16,inactive
ATP1B2 (ATPase Na+/K+ transporting subunit beta 2),SID134314831,no change,no change,-0.62,1.21,inactive
ZNF219 (zinc finger protein 219),SID152153016,no change,no change,1.45,0.74,inactive
TMEM64 (transmembrane protein 64),SID135624522,no change,no change,1.25,-0.08,inactive
SH3RF1 (SH3 domain containing ring finger 1),SID152153786,no change,no change,-0.46,-0.68,inactive
BUD13 (BUD13 spliceosome associated protein),SID134319046,no change,no change,0.66,-0.67,inactive
REM2 (RRAD and GEM like GTPase 2),SID135621549,no change,CA2 (caspase activation),-1.35,5.96,active
CETN1 (centrin 1),SID134316148,no change,no change,-0.38,3.64,inactive
MYO6 (myosin VI),SID134311749,no change,no change,0.7,-0.6,inactive
ERF (ETS2 repressor factor),SID152151579,no change,no change,-0.21,-0.58,inactive
AKR1C2 (aldo-keto reductase family 1 member C2),SID134313372,no change,no change,-0.13,3.18,inactive
ACYP1 (acylphosphatase 1),SID135621864,no change,no change,-1.18,0.53,inactive
DDOST,SID135623019,no change,no change,0.36,-0.3,inactive
CYP2W1 (cytochrome P450 family 2 subfamily W member 1),SID152155227,no change,no change,-0.05,-0.22,inactive
MED12L (mediator complex subunit 12L),SID152150961,no change,no change,0.75,0.4,inactive
DEF6 (DEF6 guanine nucleotide exchange factor),SID152150989,no change,no change,0.99,0.01,inactive
ZC3H18 (zinc finger CCCH-type containing 18),SID134322157,no change,no change,-0.88,1.64,inactive
EXOC3 (exocyst complex component 3),SID152150335,no change,no change,-0.38,-1.05,inactive
RDX (radixin),SID152151927,no change,no change,-0.6,-1.32,inactive
VCX3B (variable charge X-linked 3B),SID152155364,no change,no change,-0.4,0.79,inactive
LHX4 (LIM homeobox 4),SID134315089,no change,no change,0.7,-0.4,inactive
CPD (carboxypeptidase D),SID134310735,no change,no change,-0.18,3.38,inactive
C6orf15 (chromosome 6 open reading frame 15),SID152150639,no change,no change,-1.35,1.43,inactive
STIL (STIL centriolar assembly protein),SID152156413,no change,no change,-0.88,1.04,inactive
PYGB (glycogen phosphorylase B),SID152150863,no change,no change,1.36,3.88,inactive
CARNMT1 (carnosine N-methyltransferase 1),SID134320361,no change,no change,0,-0.36,inactive
RERGL (RERG like),SID134314487,no change,no change,0.38,-0.22,inactive

Entries listed so far whose gene name starts with P or p:
target,PubChem SID,viability hit class,caspase hit class,viability robust z-score,caspase robust z-score,outcome
POLR2C (RNA polymerase II subunit C),SID152154836,no change,no change,-3.12,6.42,inactive
"PSMD7 (proteasome 26S subunit, non-ATPase 7)",SID134314350,no change,no change,-3.31,3.82,inactive
PFDN4 (prefoldin subunit 4),SID152156561,no change,no change,1.71,-0.2,inactive
PDE3A (phosphodiesterase 3A),SID135621424,no change,no change,-0.4,-0.58,inactive
PSG5 (pregnancy specific beta-1-glycoprotein 5),SID134320002,no change,no change,-1.17,-0.88,inactive
PARD3B (par-3 family cell polarity regulator beta),SID152156246,no change,no change,0.96,-0.38,inactive
PDIA5 (protein disulfide isomerase family A member 5),SID152149181,no change,no change,-1.18,-0.04,inactive
PYGB (glycogen phosphorylase B),SID152150863,no change,no change,1.36,3.88,inactive
